Laboratory results: PubChem BioAssay AID1508597 (Cure First, 2020)

Aim: 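Knock-downs altering ovarian cancer cell survival with or without PARP inhibitor rucaparib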 (primary screen)
System: human ovarian carcinoma lines grown from tumours: OCI-P5x (papillary serous) and OCI-C5x (clear cell)
Reagent: siRNA pool against human genes, 1.25 pmol siRNA per well
Timing: 72 h or 96 h, depending on the cell culture
Treatment: rucaparib 20 µM (about IC30) or vehicle, present until read-out
Rucaparib or vehicle: Vehicle
Cell line: OCI-P5x (serous)
Measured: 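Luminescent ATP-based viability assay read 72 or 96 h after transfection, depending on culture, given as normalised percent viability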
Scale: viability, normalised: higher = more viable cells remaining
Rule for the call: 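Active when normalised viability falls below 80 percent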
Calls: active = viability under 80%; inactive = viability 80% or more
This is a random part of the about 2,100 reagents, under one of the conditions tested. 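Calls flag viability under 80% in either arm, not effects specific to rucaparib; the reference for percent is not stated.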 Some reagents were tested in more than one well and are listed for each. Not stated in the record: the 100% reference.

gene symbol | PubChem SID | technical replicate | viability, normalised (%) | Outcome
XRCC6 (X-ray repair cross complementing 6) | SID405528287 | 1 | 70.2 | active
XRCC6 (X-ray repair cross complementing 6) | SID405528287 | 2 | 59.3 | active
XRCC6 (X-ray repair cross complementing 6) | SID405528287 | 3 | 52.5 | active
TDRD3 (tudor domain containing 3) | SID405526544 | 1 | 46.2 | active
TDRD3 (tudor domain containing 3) | SID405526544 | 2 | 62.2 | active
TDRD3 (tudor domain containing 3) | SID405526544 | 3 | 42.1 | active
CHAF1A (chromatin assembly factor 1 subunit A) | SID405528097 | 1 | 60 | active
CHAF1A (chromatin assembly factor 1 subunit A) | SID405528097 | 1 | 66.8 | active
CHAF1A (chromatin assembly factor 1 subunit A) | SID405528097 | 2 | 72.2 | active
CHAF1A (chromatin assembly factor 1 subunit A) | SID405528097 | 2 | 67.9 | active
CHAF1A (chromatin assembly factor 1 subunit A) | SID405528097 | 3 | 61.5 | active
CHAF1A (chromatin assembly factor 1 subunit A) | SID405528097 | 3 | 115 | inactive
DNA2 (DNA replication helicase/nuclease 2) | SID405528407 | 1 | 81.8 | inactive
DNA2 (DNA replication helicase/nuclease 2) | SID405528407 | 2 | 77.6 | active
DNA2 (DNA replication helicase/nuclease 2) | SID405528407 | 3 | 79.4 | active
NEK5 (NIMA related kinase 5) | SID405527765 | 1 | 87.6 | inactive
NEK5 (NIMA related kinase 5) | SID405527765 | 2 | 74.4 | active
NEK5 (NIMA related kinase 5) | SID405527765 | 3 | 66.3 | active
XAB2 (XPA binding protein 2) | SID405528255 | 1 | 42.9 | active
XAB2 (XPA binding protein 2) | SID405528255 | 2 | 41.6 | active
XAB2 (XPA binding protein 2) | SID405528255 | 3 | 35.7 | active
HMG20B (high mobility group 20B) | SID405526876 | 1 | 78.7 | active
HMG20B (high mobility group 20B) | SID405526876 | 2 | 94.4 | inactive
HMG20B (high mobility group 20B) | SID405526876 | 3 | 173 | inactive
NEIL1 (nei like DNA glycosylase 1) | SID405526354 | 1 | 99.7 | inactive
NEIL1 (nei like DNA glycosylase 1) | SID405526354 | 1 | 55.2 | active
NEIL1 (nei like DNA glycosylase 1) | SID405526354 | 2 | 103 | inactive
NEIL1 (nei like DNA glycosylase 1) | SID405526354 | 2 | 59.6 | active
NEIL1 (nei like DNA glycosylase 1) | SID405526354 | 3 | 79.3 | active
NEIL1 (nei like DNA glycosylase 1) | SID405526354 | 3 | 110 | inactive
RFC1 (replication factor C subunit 1) | SID405528342 | 1 | 68.7 | active
RFC1 (replication factor C subunit 1) | SID405528342 | 2 | 48.7 | active
RFC1 (replication factor C subunit 1) | SID405528342 | 3 | 62.4 | active
RBBP8 (RB binding protein 8, endonuclease) | SID405527234 | 1 | 62.3 | active
RBBP8 (RB binding protein 8, endonuclease) | SID405527234 | 1 | 65.4 | active
RBBP8 (RB binding protein 8, endonuclease) | SID405527234 | 2 | 63.7 | active
RBBP8 (RB binding protein 8, endonuclease) | SID405527234 | 2 | 72.4 | active
RBBP8 (RB binding protein 8, endonuclease) | SID405527234 | 3 | 99.7 | inactive
RBBP8 (RB binding protein 8, endonuclease) | SID405527234 | 3 | 56.2 | active
LMNA (lamin A/C) | SID405528264 | 1 | 109 | inactive
LMNA (lamin A/C) | SID405528264 | 2 | 66.3 | active
LMNA (lamin A/C) | SID405528264 | 3 | 95.9 | inactive
HDAC5 (histone deacetylase 5) | SID405526843 | 1 | 71.4 | active
HDAC5 (histone deacetylase 5) | SID405526843 | 2 | 91.5 | inactive
HDAC5 (histone deacetylase 5) | SID405526843 | 3 | 85.8 | inactive
PDK1 (pyruvate dehydrogenase kinase 1) | SID405526441 | 1 | 76 | active
PDK1 (pyruvate dehydrogenase kinase 1) | SID405526441 | 1 | 62.1 | active
PDK1 (pyruvate dehydrogenase kinase 1) | SID405526441 | 2 | 70.4 | active
PDK1 (pyruvate dehydrogenase kinase 1) | SID405526441 | 2 | 84.4 | inactive
PDK1 (pyruvate dehydrogenase kinase 1) | SID405526441 | 3 | 69.5 | active
PDK1 (pyruvate dehydrogenase kinase 1) | SID405526441 | 3 | 73.6 | active
MSL3 (MSL complex subunit 3) | SID405527032 | 1 | 42.6 | active
MSL3 (MSL complex subunit 3) | SID405527032 | 2 | 61.5 | active
MSL3 (MSL complex subunit 3) | SID405527032 | 3 | 64.7 | active
DBH (dopamine beta-hydroxylase) | SID405528164 | 1 | 52 | active
DBH (dopamine beta-hydroxylase) | SID405528164 | 2 | 48.9 | active
DBH (dopamine beta-hydroxylase) | SID405528164 | 3 | 64.1 | active

As entered above:
Entry for XAB2 (XPA binding protein 2) [SID405528255], technical replicate 3 under “Outcome”: active
DBH (dopamine beta-hydroxylase) [SID405528164], technical replicate 3, viability, normalised (%) → 64.1
Entry of TDRD3 (tudor domain containing 3) [SID405526544], technical replicate 1 in “viability, normalised (%)”: 46.2
DNA2 (DNA replication helicase/nuclease 2) [SID405528407], technical replicate 2, viability, normalised (%) = 77.6
HMG20B (high mobility group 20B) [SID405526876], technical replicate 2, Outcome: inactive
Under “Outcome”, XAB2 (XPA binding protein 2) [SID405528255], technical replicate 2 has active
